From US6346249 (LUDWIG INSTITUTE FOR CANCER RESEARCH, dated 2002)
No constants are given. Whether binding was seen depends on the method and setting. Some entries that bind do so weakly or less than the wild type.

How the values were obtained:
[1] = target: T1, native human A33 antigen expressed on the cell surface of human colon cancer cell lines (LIM1215, SW1222, NCI-H508) (human) (UniProt Q99795); experiment: flow cytometry on LIM1215 and SW1222 (A33+) vs HT29 (A33-)
T1 sequence (looked up): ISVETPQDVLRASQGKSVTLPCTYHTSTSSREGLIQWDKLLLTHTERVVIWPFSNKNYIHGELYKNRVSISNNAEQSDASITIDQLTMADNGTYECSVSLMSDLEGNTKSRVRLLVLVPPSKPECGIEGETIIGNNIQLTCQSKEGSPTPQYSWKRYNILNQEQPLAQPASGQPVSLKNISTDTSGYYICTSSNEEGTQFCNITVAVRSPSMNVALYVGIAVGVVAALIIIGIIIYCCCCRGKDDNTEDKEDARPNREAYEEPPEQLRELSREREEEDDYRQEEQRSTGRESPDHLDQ

[2] = target: T1, native human A33 antigen expressed on the cell surface of human colon cancer cell lines (LIM1215, SW1222, NCI-H508) (human); experiment: flow cytometry, indirect immunofluorescence on colon cancer cell lines
[3] = target: T2, recombinant human A33 antigen (human, UniProt Q99795 22-233, limits assumed); experiment: SPR (Biacore), recombinant human A33 immobilized
T2 construct: also called human antigen A33; immobilized recombinant human A33
T2 sequence (looked up): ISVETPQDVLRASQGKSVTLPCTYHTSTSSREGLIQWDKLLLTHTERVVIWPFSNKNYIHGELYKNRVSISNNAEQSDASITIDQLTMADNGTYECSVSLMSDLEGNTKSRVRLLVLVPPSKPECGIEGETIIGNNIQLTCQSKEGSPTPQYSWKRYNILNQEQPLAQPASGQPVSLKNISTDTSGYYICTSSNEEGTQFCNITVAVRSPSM

[4] = target: T2, recombinant human A33 antigen; experiment: ELISA, supernatants of induced clones on immobilized recombinant human A33

Measured: binding

B1: rabbit Fab 1 (rabbit VH1, VL1; chimeric rabbit/human Fab) (Fab, V domains shown)
VH: QQQVMESGGGLVTLGGSLTLTCKASGIDFSNNGISWVRQAPGKGLEWILYIYPDYGSTDYASWVNGRFTISLDNAQNTVFLQMTSLTAADTATYFCARDRGAYAGSRGTRLDLWGQGTLVTVSS
VL: EFDMTQTPPSLSASVGETVRIRCLASEFLFNGVSWYQQKPGKPPKFLISGASNLESGVPPRFSGSGSGTDYTLTIGGVQAEDVATYYCLGGYSGSSGLTFGAGTNVEIK
notes: Soluble Fab from E. coli; also called rabbit 1; rabbit clone 1
binds: all assays above
